Among the data in article PMC7801115, “Preclinical in vitro screening of newly synthesised amidino substituted benzimidazoles and benzothiazoles” (Journal of Enzyme Inhibition and Medicinal Chemistry, 2021) are IC50 values, retold here.

One may read the IC50 as the midpoint of a concentration-inhibition curve.

The experiment relates to HCC827. In words: Cell viability assay, 3D hanging drop cell culture (CellTiter GLO 3D). It counts as cell-based. Particulars: Homo sapiens, HCC827, 72 h, read-out: IC50 antitumor activity HCC827 3D. On the procedure: Compounds are diluted 1:3. 500 nL (for 2 D cell culture) or 400 nL (for 3 D cell culture) of compound were transferred from mother plate to test plate by using Mosquito (TTP labtech). DMSO percentage in test concentrations was 0.5 − 1.0%. Starting concentration of the test compounds and standard compound doxorubicin was 50 µM (2 D cell culture) or 100 µM (3 D cell culture).
Cells were grown in 96 well Perfecta 3 D hanging drop plates 5000 cell/well for 4 days until spheres were formed (and checked under the microscope). After sphere formation cells were treated with compounds followed by 72 h incubation. Cell viability assay was performed according to the manufacturer’s instruction, using CellTiter GLO 3 D for 3 D cell culture (Promega); cell incubation was 5 min on the shaker followed by 25 min incubation in the dark. Plates were read using PE EnVision luminescence.
Calculation of IC50 data, curves and QC analysis is made by using Excel tools and GraphPadPrism software (La Jolla, CA), v. […] QC criteria parameters (Z', S:B, R2, HillSlope) were checked for every IC50 curve.

As for `CN[C@@H]1C[C@H]2O[C@@](C)([C@@H]1OC)n1c3ccccc3c3c4c(c5c6ccccc6n2c5c31)C(=O)NC4` [Staurosporine, reference compound], the IC50 is 20 nM.
